Assay results: patent US20240109937A1, “BINDING PEPTIDES AND USES THEREOF” (The Johns Hopkins University, priority 2021, published 2024)
Results are given in words; binding and its absence hold for the method and conditions named. Some binding calls cover weakened binding; strength is not graded here.

The chains behind the UniProt entries cited, without tags or fusion partners. Where a name states a change or a piece, a line headed by the entry shows the natural chain unless it says otherwise. Residues count along the entry.
UniProt Q9Z0X1: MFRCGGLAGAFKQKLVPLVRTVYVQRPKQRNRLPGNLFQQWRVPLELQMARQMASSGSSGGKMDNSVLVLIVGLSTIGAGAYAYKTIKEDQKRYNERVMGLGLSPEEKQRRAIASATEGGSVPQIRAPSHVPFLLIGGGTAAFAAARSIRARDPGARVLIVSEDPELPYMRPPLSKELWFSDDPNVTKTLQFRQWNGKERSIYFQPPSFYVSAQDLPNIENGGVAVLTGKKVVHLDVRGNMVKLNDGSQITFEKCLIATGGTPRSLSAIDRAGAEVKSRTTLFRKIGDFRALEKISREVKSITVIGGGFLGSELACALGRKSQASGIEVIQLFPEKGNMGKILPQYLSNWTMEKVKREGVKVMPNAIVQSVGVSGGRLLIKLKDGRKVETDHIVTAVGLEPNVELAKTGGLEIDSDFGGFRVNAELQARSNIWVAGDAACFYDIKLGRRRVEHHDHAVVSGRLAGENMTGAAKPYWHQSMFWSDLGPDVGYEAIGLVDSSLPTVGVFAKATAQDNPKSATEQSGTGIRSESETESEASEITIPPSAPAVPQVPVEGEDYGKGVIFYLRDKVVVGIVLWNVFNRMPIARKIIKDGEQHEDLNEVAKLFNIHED
Mature apoptosis-inducing factor (mAIF, 62 kDa), endogenous mouse: residues 54-612 of Q9Z0X1
Truncated apoptosis-inducing factor (tAIF, 57 kDa), endogenous mouse: residues 103-612 of Q9Z0X1
UniProt P17742, residues 2-164: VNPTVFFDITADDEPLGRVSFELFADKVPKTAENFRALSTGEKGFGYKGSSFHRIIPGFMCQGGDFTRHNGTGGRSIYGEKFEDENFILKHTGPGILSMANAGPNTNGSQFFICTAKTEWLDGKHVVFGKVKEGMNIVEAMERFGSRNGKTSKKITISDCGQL

Columns and labels:
[1] = molecular target: Truncated apoptosis-inducing factor (tAIF, 57 kDa), endogenous mouse (mouse) (UniProt Q9Z0X1); experiment: immunoblots of myocardial lysates on non-denaturing gels (co-migration)
[2] = molecular target: Truncated apoptosis-inducing factor (tAIF, 57 kDa), endogenous mouse (mouse) (UniProt Q9Z0X1); experiment: immunoblots of ISO/Ca2+-treated ES-CM lysates (co-migration)
[3] = molecular target: Mature apoptosis-inducing factor (mAIF, 62 kDa), endogenous mouse (mouse) (UniProt Q9Z0X1); experiment: immunoblots of ISO/Ca2+-treated ES-CM lysates on non-denaturing gels (co-migration)
[4] = molecular target: Truncated apoptosis-inducing factor (tAIF, 57 kDa), endogenous mouse (mouse) (UniProt Q9Z0X1); experiment: as above
[5] = molecular target: Truncated apoptosis-inducing factor (tAIF, 57 kDa), endogenous mouse (mouse) (UniProt Q9Z0X1); experiment: immunoblots of myocardial lysates on non-denaturing gels (co-migration, 'bound-PPIA')

Measured: binding

Cyclophilin-A (peptidyl-prolyl cis-trans isomerase, PPIA), endogenous in mouse myocardium and mouse ES-CMs (from UniProt P17742 2-164) (enzyme)
binds: all assays above
